Laboratory results: the supplement of paper PMC10849652
The list shows a part of the results.

Sequences of proteins named here, by UniProt entry; tags and fusion partners are left off. A change or cut given only in a name is not applied to a line headed by its entry.
UniProt P43361: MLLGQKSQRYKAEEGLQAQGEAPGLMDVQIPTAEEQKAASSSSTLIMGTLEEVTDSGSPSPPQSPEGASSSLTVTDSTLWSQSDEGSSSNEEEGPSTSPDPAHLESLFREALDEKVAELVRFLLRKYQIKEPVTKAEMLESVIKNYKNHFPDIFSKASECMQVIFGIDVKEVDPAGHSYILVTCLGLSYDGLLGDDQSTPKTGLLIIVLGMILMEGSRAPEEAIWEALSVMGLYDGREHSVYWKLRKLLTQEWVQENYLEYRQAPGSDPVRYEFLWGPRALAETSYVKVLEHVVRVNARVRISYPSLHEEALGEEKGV
UniProt Q9BPZ7, whole entry, looked up: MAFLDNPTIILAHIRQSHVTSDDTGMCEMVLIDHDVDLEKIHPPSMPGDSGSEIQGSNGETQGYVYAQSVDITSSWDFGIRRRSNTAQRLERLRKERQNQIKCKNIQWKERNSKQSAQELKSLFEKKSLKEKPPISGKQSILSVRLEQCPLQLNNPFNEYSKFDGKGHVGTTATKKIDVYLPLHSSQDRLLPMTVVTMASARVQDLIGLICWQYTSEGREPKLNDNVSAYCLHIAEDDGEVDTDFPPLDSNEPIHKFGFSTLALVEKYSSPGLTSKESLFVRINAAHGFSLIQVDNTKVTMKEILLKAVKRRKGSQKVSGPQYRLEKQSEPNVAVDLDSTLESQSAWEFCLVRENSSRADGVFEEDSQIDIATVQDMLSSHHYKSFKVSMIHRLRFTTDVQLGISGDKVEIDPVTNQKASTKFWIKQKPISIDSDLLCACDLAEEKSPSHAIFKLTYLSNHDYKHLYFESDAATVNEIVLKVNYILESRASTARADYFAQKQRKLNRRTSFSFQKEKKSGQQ
UniProt Q9H8J5: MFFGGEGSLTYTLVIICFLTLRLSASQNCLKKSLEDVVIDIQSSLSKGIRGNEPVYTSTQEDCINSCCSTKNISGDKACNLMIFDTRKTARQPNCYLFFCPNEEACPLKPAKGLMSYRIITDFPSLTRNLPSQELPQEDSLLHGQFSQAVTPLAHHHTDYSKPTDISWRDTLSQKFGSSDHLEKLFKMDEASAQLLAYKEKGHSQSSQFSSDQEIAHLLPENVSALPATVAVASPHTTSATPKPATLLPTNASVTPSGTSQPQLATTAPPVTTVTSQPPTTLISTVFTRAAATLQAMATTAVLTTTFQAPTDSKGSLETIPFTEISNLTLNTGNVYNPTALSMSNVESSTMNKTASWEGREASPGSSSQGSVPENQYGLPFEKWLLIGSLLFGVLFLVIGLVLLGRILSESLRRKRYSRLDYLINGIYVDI
UniProt Q8IZL2, whole entry, looked up: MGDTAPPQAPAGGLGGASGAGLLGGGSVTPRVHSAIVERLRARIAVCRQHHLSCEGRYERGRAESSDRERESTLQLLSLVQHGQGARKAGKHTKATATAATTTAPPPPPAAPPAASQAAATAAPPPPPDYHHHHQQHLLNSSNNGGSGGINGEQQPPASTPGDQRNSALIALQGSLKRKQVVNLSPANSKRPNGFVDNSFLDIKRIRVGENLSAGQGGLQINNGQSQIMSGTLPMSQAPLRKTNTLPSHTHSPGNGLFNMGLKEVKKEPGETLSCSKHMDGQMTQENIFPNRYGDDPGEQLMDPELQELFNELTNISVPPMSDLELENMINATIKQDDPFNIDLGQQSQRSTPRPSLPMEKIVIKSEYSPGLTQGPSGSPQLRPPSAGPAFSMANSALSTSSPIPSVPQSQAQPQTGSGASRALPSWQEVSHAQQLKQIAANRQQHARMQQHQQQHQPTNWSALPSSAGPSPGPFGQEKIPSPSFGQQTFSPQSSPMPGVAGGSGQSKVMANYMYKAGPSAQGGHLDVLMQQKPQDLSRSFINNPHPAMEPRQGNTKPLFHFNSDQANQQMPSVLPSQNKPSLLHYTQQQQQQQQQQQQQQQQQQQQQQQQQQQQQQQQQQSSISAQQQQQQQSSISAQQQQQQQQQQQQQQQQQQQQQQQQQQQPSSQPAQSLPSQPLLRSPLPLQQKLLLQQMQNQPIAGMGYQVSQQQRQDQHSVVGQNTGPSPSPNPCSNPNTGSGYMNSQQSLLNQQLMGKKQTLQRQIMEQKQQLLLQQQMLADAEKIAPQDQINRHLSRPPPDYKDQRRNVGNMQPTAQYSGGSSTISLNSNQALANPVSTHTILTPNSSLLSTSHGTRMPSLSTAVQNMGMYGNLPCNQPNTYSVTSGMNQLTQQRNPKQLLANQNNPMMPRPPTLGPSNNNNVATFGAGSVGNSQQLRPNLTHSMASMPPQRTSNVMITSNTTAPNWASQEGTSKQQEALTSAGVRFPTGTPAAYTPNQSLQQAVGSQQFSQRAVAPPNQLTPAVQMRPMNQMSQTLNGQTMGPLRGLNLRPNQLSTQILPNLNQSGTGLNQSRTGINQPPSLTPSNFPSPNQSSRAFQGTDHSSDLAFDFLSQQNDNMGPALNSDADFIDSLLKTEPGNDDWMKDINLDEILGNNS
UniProt Q13163: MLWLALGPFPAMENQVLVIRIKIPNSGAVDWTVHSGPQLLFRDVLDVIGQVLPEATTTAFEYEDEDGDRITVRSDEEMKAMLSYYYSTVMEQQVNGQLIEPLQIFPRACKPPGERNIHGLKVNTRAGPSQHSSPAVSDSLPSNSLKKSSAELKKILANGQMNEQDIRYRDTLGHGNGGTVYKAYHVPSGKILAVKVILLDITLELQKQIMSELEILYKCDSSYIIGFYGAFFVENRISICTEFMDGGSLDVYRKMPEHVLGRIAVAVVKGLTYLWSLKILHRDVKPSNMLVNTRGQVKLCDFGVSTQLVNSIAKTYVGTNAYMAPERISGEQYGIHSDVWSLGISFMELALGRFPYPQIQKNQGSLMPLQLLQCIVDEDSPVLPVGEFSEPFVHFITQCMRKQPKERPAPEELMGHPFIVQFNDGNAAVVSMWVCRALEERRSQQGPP
UniProt Q9H089: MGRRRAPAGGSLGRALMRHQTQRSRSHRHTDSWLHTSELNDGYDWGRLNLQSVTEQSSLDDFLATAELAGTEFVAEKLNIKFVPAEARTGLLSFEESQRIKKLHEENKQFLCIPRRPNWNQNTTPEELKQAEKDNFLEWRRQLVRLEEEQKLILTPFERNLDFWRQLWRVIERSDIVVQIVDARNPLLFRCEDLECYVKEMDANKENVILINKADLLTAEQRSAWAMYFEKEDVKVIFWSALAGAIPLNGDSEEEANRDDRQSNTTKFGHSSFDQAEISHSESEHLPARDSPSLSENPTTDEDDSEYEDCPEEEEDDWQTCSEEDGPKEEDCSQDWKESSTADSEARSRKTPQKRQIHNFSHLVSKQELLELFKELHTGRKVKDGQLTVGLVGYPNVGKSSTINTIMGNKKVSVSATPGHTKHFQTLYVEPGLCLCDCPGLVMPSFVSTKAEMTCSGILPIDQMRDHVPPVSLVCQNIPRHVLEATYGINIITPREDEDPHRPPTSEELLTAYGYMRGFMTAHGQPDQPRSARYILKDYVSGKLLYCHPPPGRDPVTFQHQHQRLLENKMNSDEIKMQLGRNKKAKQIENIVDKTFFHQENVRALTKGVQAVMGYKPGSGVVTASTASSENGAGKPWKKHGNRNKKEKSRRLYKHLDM
UniProt Q14766: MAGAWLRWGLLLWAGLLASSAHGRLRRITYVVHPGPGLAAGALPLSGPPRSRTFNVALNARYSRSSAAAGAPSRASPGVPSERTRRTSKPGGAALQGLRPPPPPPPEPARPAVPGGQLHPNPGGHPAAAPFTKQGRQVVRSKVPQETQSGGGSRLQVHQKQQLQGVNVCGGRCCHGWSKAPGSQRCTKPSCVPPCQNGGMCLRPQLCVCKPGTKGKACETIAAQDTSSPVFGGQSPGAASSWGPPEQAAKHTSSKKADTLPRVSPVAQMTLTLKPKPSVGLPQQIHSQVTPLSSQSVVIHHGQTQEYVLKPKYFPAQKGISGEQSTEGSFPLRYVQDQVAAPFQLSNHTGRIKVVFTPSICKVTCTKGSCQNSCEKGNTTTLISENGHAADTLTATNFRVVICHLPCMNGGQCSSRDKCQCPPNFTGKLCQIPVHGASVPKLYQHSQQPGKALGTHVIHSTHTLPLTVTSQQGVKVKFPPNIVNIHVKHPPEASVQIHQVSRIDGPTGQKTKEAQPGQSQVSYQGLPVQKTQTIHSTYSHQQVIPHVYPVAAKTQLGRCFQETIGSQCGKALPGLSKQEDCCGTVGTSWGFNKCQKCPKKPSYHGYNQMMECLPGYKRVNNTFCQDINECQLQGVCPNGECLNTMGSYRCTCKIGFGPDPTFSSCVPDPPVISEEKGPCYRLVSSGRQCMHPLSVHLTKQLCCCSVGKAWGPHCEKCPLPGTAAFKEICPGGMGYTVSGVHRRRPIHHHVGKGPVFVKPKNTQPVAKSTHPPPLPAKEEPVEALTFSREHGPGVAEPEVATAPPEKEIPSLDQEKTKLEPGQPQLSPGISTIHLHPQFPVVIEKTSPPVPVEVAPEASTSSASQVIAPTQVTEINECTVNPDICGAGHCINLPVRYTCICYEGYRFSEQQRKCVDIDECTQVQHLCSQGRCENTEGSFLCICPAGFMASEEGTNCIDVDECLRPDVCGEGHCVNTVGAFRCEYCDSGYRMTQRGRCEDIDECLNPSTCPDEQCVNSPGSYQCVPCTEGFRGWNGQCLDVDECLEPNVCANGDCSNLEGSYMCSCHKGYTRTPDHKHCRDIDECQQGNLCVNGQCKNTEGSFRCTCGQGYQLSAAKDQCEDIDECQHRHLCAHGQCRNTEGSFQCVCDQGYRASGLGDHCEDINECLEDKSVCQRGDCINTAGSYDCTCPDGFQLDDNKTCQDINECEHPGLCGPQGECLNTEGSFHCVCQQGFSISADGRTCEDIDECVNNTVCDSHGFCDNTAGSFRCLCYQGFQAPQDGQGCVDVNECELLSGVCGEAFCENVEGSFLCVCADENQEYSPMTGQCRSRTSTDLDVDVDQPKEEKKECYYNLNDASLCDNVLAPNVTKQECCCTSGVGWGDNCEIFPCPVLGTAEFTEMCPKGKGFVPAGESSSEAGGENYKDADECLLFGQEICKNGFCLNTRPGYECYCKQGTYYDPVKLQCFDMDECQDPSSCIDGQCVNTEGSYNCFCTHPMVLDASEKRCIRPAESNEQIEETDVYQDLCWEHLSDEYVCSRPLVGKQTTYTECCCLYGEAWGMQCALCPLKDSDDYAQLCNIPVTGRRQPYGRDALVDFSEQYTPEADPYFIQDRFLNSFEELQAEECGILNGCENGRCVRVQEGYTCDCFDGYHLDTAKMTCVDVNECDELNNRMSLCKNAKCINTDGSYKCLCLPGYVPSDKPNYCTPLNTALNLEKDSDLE
UniProt Q96LZ2: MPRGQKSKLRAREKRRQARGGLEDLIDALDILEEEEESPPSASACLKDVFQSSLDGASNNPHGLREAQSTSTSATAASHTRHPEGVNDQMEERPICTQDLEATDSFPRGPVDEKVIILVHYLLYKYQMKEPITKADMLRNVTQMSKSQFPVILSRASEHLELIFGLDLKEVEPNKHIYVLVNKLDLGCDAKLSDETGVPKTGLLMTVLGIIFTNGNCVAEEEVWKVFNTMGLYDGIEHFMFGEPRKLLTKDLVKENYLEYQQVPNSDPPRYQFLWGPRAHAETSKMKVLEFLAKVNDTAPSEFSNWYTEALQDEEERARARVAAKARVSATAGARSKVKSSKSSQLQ
UniProt Q32MZ4: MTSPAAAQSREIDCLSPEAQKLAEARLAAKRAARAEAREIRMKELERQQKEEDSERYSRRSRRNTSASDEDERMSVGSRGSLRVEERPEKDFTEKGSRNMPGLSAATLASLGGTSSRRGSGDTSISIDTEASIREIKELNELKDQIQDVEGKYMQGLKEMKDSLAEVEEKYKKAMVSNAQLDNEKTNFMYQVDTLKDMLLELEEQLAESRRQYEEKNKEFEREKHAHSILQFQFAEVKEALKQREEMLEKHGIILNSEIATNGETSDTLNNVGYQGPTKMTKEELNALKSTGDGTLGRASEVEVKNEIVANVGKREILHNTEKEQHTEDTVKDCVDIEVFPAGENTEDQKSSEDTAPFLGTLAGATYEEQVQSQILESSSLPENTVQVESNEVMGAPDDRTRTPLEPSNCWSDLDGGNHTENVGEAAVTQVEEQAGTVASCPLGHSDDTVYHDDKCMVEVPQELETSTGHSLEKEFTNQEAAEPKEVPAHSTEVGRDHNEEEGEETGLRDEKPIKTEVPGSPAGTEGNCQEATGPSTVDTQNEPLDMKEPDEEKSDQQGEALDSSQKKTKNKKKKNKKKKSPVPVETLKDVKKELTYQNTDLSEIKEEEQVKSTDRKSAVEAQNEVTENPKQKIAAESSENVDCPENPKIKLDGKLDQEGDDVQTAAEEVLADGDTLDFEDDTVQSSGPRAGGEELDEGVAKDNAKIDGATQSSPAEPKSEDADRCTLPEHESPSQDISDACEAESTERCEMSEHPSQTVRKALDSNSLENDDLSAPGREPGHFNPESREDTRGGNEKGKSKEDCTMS
UniProt Q969L4: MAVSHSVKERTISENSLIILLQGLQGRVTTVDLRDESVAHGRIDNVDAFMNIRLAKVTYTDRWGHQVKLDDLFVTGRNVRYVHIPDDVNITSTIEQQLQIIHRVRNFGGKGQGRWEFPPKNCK

Tests used:
Assay in all cases: log2 fold change, soluble protein after heating vs DMSO (PISA); higher = thermal stabilisation; K562 cells, 10 uM, 30 min; active = over 0.2 and 3.5 SD of the protein, either way, in both replicates (recomputed)
[1] = compound: C[C@@H](Oc1cc(-c2cnn(C3CCNCC3)c2)cnc1N)c1c(Cl)ccc(F)c1Cl [crizotinib]
Procedure, shortened: (§1)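 K562 cells at 2×10^6 cells/mL were exposed to 10 μM compound for 30 min, then aliquots were heated for 3 min across 48°C-58°C, pooled, and extracted in PBS containing 0.5% NP-40 at 4°C. The supernatant after 21,000xg for 90 min was taken as soluble protein and measured by TMTpro 16plex LC-MS/MS with channel sums equalised. Thermal stability is reported relative to control samples, with values from duplicates. Fold changes are given on a log2 scale.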

[2] = compound: Cc1cc(Nc2cc(CN3CCOCC3)c3nc(C)c(Cc4ccc(Cl)cc4F)n3n2)n[nH]1 [gandotinib]
Procedure, shortened: as §1

[3] = compound: Cc1ccc(C(=O)N(CCCN)[C@@H](c2nc3cc(Cl)ccc3c(=O)n2Cc2ccccc2)C(C)C)cc1 [ispinesib]
Procedure, shortened: as §1

[4] = compound: Cc1cccc(CC(=O)N2CCc3c2ccc(-c2cn(C)c4ncnc(N)c24)c3F)n1
Procedure, shortened: as §1

[5] = compound: Cn1cc(-c2ccc3nnc(C(F)(F)c4ccc5ncccc5c4)n3n2)cn1
Procedure, shortened: as §1

[6] = compound: CS(=O)(=O)c1ccc(-c2cnc(N)c(C(=O)Nc3ccccc3)n2)cc1
Procedure, shortened: as §1

[7] = compound: C[C@@H]1COCCN1C2=NC(=NC(=C2)C3(CC3)S(=O)(=O)C)C4=C5C=CNC5=CC=C4
Procedure, shortened: as §1

[8] = compound: C[C@H](Nc1ncnc2nc[nH]c12)c1cc2cccc(Cl)c2c(=O)n1-c1ccccc1 [duvelisib]
Procedure, shortened: as §1

[9] = compound: Cc1cc(SCc2sc(-c3ccc(C(F)(F)F)cc3)nc2C)ccc1OCC(=O)O
Procedure, shortened: as §1

[10] = compound: Cc1ccc(NC(=O)c2ccc(CN3CC[C@H](N(C)C)C3)c(C(F)(F)F)c2)cc1Nc1nccc(-c2cncnc2)n1 [bafetinib]
Procedure, shortened: as §1

[11] = compound: Cc1cn(-c2cc(NC(=O)c3ccc(C)c(Nc4nccc(-c5cccnc5)n4)c3)cc(C(F)(F)F)c2)cn1 [nilotinib]
Procedure, shortened: as §1

[12] = compound: Cc1nc(Nc2n[nH]c3c2CN(C(=O)N[C@H](CN(C)C)c2ccccc2)C3(C)C)c2sccc2n1
Procedure, shortened: as §1

[13] = compound: Cc1nc(Nc2ncc(C(=O)Nc3c(C)cccc3Cl)s2)cc(N2CCN(CCO)CC2)n1 [dasatinib]
Procedure, shortened: as §1

[14] = compound: Cc1ncc(-c2ccnc(Nc3ccc(S(C)(=O)=O)cc3)n2)n1C(C)C
Procedure, shortened: as §1

[15] = compound: Cn1cncc1[C@@](N)(c1ccc(Cl)cc1)c1ccc2c(c1)c(-c1cccc(Cl)c1)cc(=O)n2C [tipifarnib]
Procedure, shortened: as §1

[16] = compound: FC(F)(F)c1ccc(/C=C/c2nc(COc3ccc(CCCCn4ccnn4)cc3)co2)cc1 [mubritinib]
Procedure, shortened: as §1

[17] = compound: C[C@H](C1=CC=C(C=C1)C(=O)NC2=C3C=CNC3=NC=C2)N
Procedure, shortened: as §1

[18] = compound: Cc1ccc(-n2nc(C(C)(C)C)cc2NC(=O)Nc2ccc(OCCN3CCOCC3)c3ccccc23)cc1 [doramapimod]
Procedure, shortened: as §1

[19] = compound: Cn1cc(-c2ccc3c(c2)CCN3C(=O)Cc2cccc(C(F)(F)F)c2)c2c(N)ncnc21
Procedure, shortened: as §1

[20] = compound: Cc1cc(Nc2cc(N3CCN(C)CC3)nc(Sc3ccc(NC(=O)C4CC4)cc3)n2)n[nH]1 [tozasertib]
Procedure, shortened: as §1

Measured: log2 fold change

MAPK11 (UniProt Q15759)
inactive: [1] -0.115 | [2] -0.083 | [3] -0.334 | [4] -0.116 | [5] -0.024

LRRC8B (UniProt Q6P9F7)
inactive: [6] -0.03 | [7] -0.028 | [8] -0.091 | [9] 0.177 | [3] 0.047 | [10] 0.117 | [11] 0.118 | [12] 0.145 | [13] -0.163 | [14] 0.039 | [5] -0.108 | [15] 0.244 | [16] -0.035

MAGEA8 (UniProt P43361)
active: [2] -0.472 | [11] -0.372
inactive: [1] -0.003 | [17] 0.134 | [9] -0.002 | [18] 0.037 | [3] -0.034 | [10] 0.022 | [4] -0.265 | [12] -0.207 | [13] 0.019 | [14] 0.016 | [19] 0.008 | [5] -0.003 | [15] -0.01

MAPKAP1 (UniProt Q9BPZ7)
inactive: [7] -0.169 | [2] 0.083 | [20] 0.273 | [3] -0.287 | [4] 0.155 | [5] -0.065

MAN2B1 (UniProt M0QYZ1)
inactive: [1] 0.228 | [7] -0.014 | [18] 0.036 | [15] 0.159

MAP3K10 (UniProt Q02779)
inactive: [6] 0.155 | [2] -0.057 | [20] -0.028 | [10] -0.059 | [4] -0.042 | [15] -0.202

Quoted from the results shown (2 entries):
MAPKAP1 (UniProt Q9BPZ7)
inactive: [7] -0.169 | [2] 0.083 | [20] 0.273 | [3] -0.287 | [4] 0.155 | [5] -0.065

MAN2B1 (UniProt M0QYZ1)
inactive: [1] 0.228 | [7] -0.014 | [18] 0.036 | [15] 0.159

(continued)

MANSC1 (UniProt Q9H8J5)
inactive: [17] -0.034 | [20] -0.007 | [11] -0.075 | [12] 0.12 | [14] -0.116 | [19] 0.089

MAFG (UniProt O15525)
inactive: [7] -0.248 | [17] -0.011 | [2] 0.055 | [3] -0.079 | [4] -0.104 | [19] -0.171 | [5] -0.049

MAP4K4 isoform 6 (UniProt O95819)
inactive: [6] -0.019 | [17] -0.305 | [9] -0.025 | [11] 0.047 | [12] -0.034 | [13] -0.001 | [14] 0.008 | [19] 0.1 | [16] 0.02

MAML2 (UniProt Q8IZL2)
inactive: [3] 0.089 | [5] -0.033

MAP2K5 (UniProt Q13163)
inactive: [1] -0.012 | [17] 0.072 | [9] -0.171 | [18] 0.053 | [3] 0.123 | [13] 0.063 | [19] 0.06 | [5] 0

LSM14A, A0A140TA76
inactive: [20] -0.008 | [16] 0.133

MAPRE3 isoform 2 (UniProt Q9UPY8)
inactive: [1] 0.22 | [17] 0.06 | [18] 0.007 | [11] -0.539 | [12] -0.355 | [14] -0.118 | [19] -0.028 | [15] 0.201

LSG1 (UniProt Q9H089)
inactive: [1] -0.084 | [7] -0.165 | [17] 0.447 | [8] -0.068 | [20] -0.016 | [9] 0.144 | [18] 0.159 | [3] 0.006 | [13] -0.001 | [19] -0.048 | [5] -0.143 | [15] 0.304 | [16] 0.068

LTBP1 isoform 4 (UniProt Q14766)
inactive: [7] -0.097 | [17] -0.107 | [8] -0.078 | [2] 0.022 | [20] -0.069 | [9] -0.074 | [3] 0.03 | [10] 0.086 | [4] -0.054 | [11] 0.173 | [12] 0.046 | [13] -0.237 | [14] -0.139 | [19] -0.026 | [5] -0.281 | [15] -0.013

MAP4 isoform 5 (UniProt P27816)
inactive: [6] 0.096 | [7] -0.159 | [3] -0.042 | [10] -0.028 | [11] -0.181 | [12] 0.028 | [14] 0 | [5] -0.037 | [15] 0.066 | [16] 0.027

MAGEB10 (UniProt Q96LZ2)
inactive: [17] 0.307 | [8] -0.33 | [20] -0.049 | [9] 0.093 | [11] 0.064 | [12] -0.084 | [13] 0.083 | [14] -0.087 | [19] -0.238

MAPT isoform 9 (UniProt P10636)
inactive: [6] 0.031 | [7] 0.075 | [10] -0.327 | [15] 0.047

LYPLA1, A0A087X1K9
inactive: [8] 0.885 | [9] 0.527 | [3] -0.007 | [13] -0.296 | [5] 0.191 | [16] 0.314

MAGED1 isoform 2 (UniProt Q9Y5V3)
inactive: [6] -0.012 | [7] 0.096 | [17] 0.205 | [9] -0.008 | [11] -0.035 | [12] -0.008 | [13] 0.057 | [14] -0.082 | [19] 0.111 | [15] -0.104

MAGEA1 (UniProt P43355)
inactive: [1] -0.146 | [7] -0.165 | [17] -0.096 | [2] -0.143 | [18] 0.066 | [3] -0.264 | [10] 0.076 | [4] 0.029 | [11] -0.052 | [12] -0.036 | [14] 0.079 | [19] 0.034 | [5] -0.07 | [15] -0.07 | [16] 0.009

LSM11 (UniProt P83369)
inactive: [17] 0.022 | [2] 0.023 | [4] -0.066 | [19] 0.029

LRRFIP1 isoform 4 (UniProt Q32MZ4)
inactive: [1] 0.012 | [7] 0.175 | [17] 0.59 | [2] 0.548 | [9] -0.025 | [18] -0.016 | [4] -0.046 | [13] -0.095 | [19] -0.226

LRRCC1 (UniProt Q9C099)
inactive: [9] 0.013 | [3] -0.301 | [13] 0.017 | [5] 0.063

LSM10 (UniProt Q969L4)
inactive: [1] -0.061 | [8] 0.113 | [20] -0.048 | [9] -0.013 | [18] 0.077 | [10] 0.132 | [11] -0.003 | [12] -0.074 | [13] 0.172 | [14] 0.082 | [15] 0.008

LYST (UniProt Q99698)
inactive: [7] 0.053 | [8] 0.082 | [2] 0.039 | [9] -0.19 | [10] -0.27 | [4] -0.397 | [11] -0.134 | [12] -0.002 | [13] 0.193 | [14] -0.16 | [16] -0.238

LSR isoform 3 (UniProt Q86X29)
inactive: [6] 0.052 | [17] -0.138 | [9] -0.118 | [13] -0.074 | [19] 0.026 | [15] 0.101 | [16] 0.435
